PubChem BioAssay AID1053208, Peter MacCallum Cancer Centre, 2014
Test: 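Genes whose silencing cuts survival of bone tumour cells only with doxorubicin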 (primary screen). System: mouse osteosarcoma cells, early-passage culture from an engineered mouse model of fibroblastic bone tumour. Knock-down reagent: siRNA pool against mouse genes, 40 nM. Time to read-out: about 120 h (48 h before drug, then 72 h with drug). Challenge: doxorubicin 100 nM for 72 h, roughly 30-40% inhibitory dose. Read-out: 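Luminescent ATP signal taken as viability with or without 100 nM doxorubicin for 72 h; mean of two wells set against non-targeting siRNA and turned into robust z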. Scale: viability z-score with doxorubicin: higher = more viable cells under doxorubicin; viability z-score without drug: higher = more viable cells with knock-down alone. Active means: 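Called active if knock-down leaves viability unchanged without drug (z within -2 to 2) but lowers it with doxorubicin (z at or under -2)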.
The whole screen tested about 17,000 reagents; this is an unselected part. 788 of all reagents (4.7%) count as active. 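Calls rest on z-score classes alone; an extra cut-off of viability at most 70% of control was not applied to them.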 Further read-outs or replicates are left out here.

target gene | combined z-score class | viability z-score with doxorubicin | viability z-score without drug | call
Itga3 (integrin alpha 3) | no change with or without drug | -0.67 | -1.01 | inactive
Sorbs1 (sorbin and SH3 domain containing 1) | no change with or without drug | -0.67 | -0.34 | inactive
Cilp | no change with or without drug | 1.8 | 1.85 | inactive
Pars2 (prolyl-tRNA synthetase (mitochondrial)(putative)) | no change with or without drug | 1.01 | 0.34 | inactive
Gpr150 (G protein-coupled receptor 150) | no change with or without drug | -0.34 | 0.34 | inactive
Or2r3 (olfactory receptor family 2 subfamily R member 3) | no change with or without drug | -0.45 | -0.17 | inactive
Rpap1 (RNA polymerase II associated protein 1) | no change with or without drug | 0.11 | 0.84 | inactive
Hoga1 (4-hydroxy-2-oxoglutarate aldolase 1) | low cell count with doxorubicin only | -2.36 | 1.18 | active
Ints13 (integrator complex subunit 13) | no change with or without drug | 1.8 | 1.18 | inactive
Entpd2 (ectonucleoside triphosphate diphosphohydrolase 2) | no change with or without drug | 1.12 | 0.51 | inactive
Uck1 (uridine-cytidine kinase 1) | no change with or without drug | 0 | -0.67 | inactive
Penk (preproenkephalin) | no change with or without drug | 0.9 | -0.17 | inactive
H2ac1 (H2A clustered histone 1) | no change with or without drug | -0.45 | 0 | inactive
Gbp4 (guanylate binding protein 4) | no change with or without drug | -0.22 | -1.01 | inactive

Taken from above:
For “viability z-score without drug”, H2ac1 (H2A clustered histone 1) has 0
Or2r3 (olfactory receptor family 2 subfamily R member 3), combined z-score class = no change with or without drug
Gbp4 (guanylate binding protein 4), viability z-score with doxorubicin = -0.22
Value for Penk (preproenkephalin) under “call”: inactive
Value of Cilp in “call”: inactive

The list goes on.
target gene | combined z-score class | viability z-score with doxorubicin | viability z-score without drug | call
Tigd3 (tigger transposable element derived 3) | low cell count with doxorubicin only | -2.47 | -1.52 | active
Plcb2 (phospholipase C, beta 2) | high cell count without drug only | 1.35 | 2.53 | inactive
Or5p80 (olfactory receptor family 5 subfamily P member 80) | no change with or without drug | 1.46 | 0.51 | inactive
Srms | no change with or without drug | -0.11 | -0.51 | inactive
St8sia4 (ST8 alpha-N-acetyl-neuraminide alpha-2,8-sialyltransferase 4) | no change with or without drug | -0.67 | -1.18 | inactive
Pkib | no change with or without drug | 1.57 | 0.67 | inactive
Ring1 (ring finger protein 1) | no change with or without drug | 0 | 1.01 | inactive
Klhl1 (kelch-like 1) | no change with or without drug | -1.57 | 0.51 | inactive
Gm20558 (predicted gene, 20558) | no change with or without drug | 0.56 | 0.17 | inactive
Sar1a (secretion associated Ras related GTPase 1A) | no change with or without drug | -0.34 | -0.17 | inactive
Wdr45 (WD repeat domain 45) | low cell count with doxorubicin only | -2.14 | -1.01 | active
Myo1h (myosin 1H) | no change with or without drug | 0.79 | 0.17 | inactive
Cachd1 (cache domain containing 1) | no change with or without drug | 0.67 | 1.18 | inactive
Cdx1 (caudal type homeobox 1) | no change with or without drug | 0.22 | 1.18 | inactive
Slc9c1 | no change with or without drug | 1.12 | -0.51 | inactive
Sirt7 (sirtuin 7) | no change with or without drug | 0 | -0.17 | inactive
Ark2n (arkadia (RNF111) N-terminal like PKA signaling regulator 2N) | no change with or without drug | 0.45 | 1.18 | inactive
Ercc6l | no change with or without drug | -1.8 | -1.01 | inactive
Clec2g (C-type lectin domain family 2, member g) | no change with or without drug | 0.9 | -0.51 | inactive
5930422O12Rik (RIKEN cDNA 5930422O12 gene) | no change with or without drug | -0.34 | 0.51 | inactive
